Results deposited as PubChem BioAssay AID1224826 (NIAID, 2016)

- Test: 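Regulators of Tlr4 signalling leading to Tnf-alpha expression in macrophages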 (primary screen)
- Cell system: RAW264.7 G9 macrophages from mouse bearing reporters for p65 (GFP) and the Tnf promoter (mCherry)
- Reagent: siRNA pool against mouse genes, 100 nM
- Duration: 16 h of LPS stimulation, after 2 days of siRNA transfection
- Conditions: bacterial lipopolysaccharide (Salmonella minnesota R595), 10 ng/ml
- Read-out: 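Nuclear mCherry signal of the Tnf promoter reporter measured by imaging after background removal, scaled to each plate median and turned into robust z-scores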
- Reading the numbers: Tnf reporter robust z-score: higher = stronger Tnf promoter reporter signal after LPS
- Hit rule: 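Called active when robust z-score is at most -1.3, matching the median of the Tlr4 knock-down control, or over 3; control wells and wells with under 50 cells never active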
- Meaning of the calls: active = Tnf reporter clearly lowered or raised; inactive = no clear change in Tnf reporter
The deposit covers about 17,000 reagents; this is a part drawn at random. Of all reagents, about 1,110 (6.6%) are marked active. 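Active means lowered or raised reporter signal; replicate intensities are raw and not normalised per plate.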 Not all columns of the deposit are shown.

After knock-down of A830039N20Rik (RIKEN cDNA A830039N20 gene), the screen gave Tnf reporter robust z-score -0.68; fewer than 50 cells in well enough cells in well; inactive.
With knock-down of Ank3 (ankyrin 3, epithelial), the screen gave Tnf reporter robust z-score 0.05; fewer than 50 cells in well enough cells in well; inactive.
Knock-down of Bard1 (BRCA1 associated RING domain 1) resulted in: Tnf reporter robust z-score 0.4; fewer than 50 cells in well enough cells in well; inactive.
With knock-down of Gpc2 (glypican 2 cerebroglycan), the record shows Tnf reporter robust z-score -0.27; fewer than 50 cells in well enough cells in well; inactive.
Against Adat1 (adenosine deaminase, tRNA-specific 1), the entry reads Tnf reporter robust z-score -0.2; fewer than 50 cells in well enough cells in well; inactive.
After knock-down of Chek1 (checkpoint kinase 1) the results were Tnf reporter robust z-score 0.6; fewer than 50 cells in well enough cells in well; inactive.
For Ccni (cyclin I), the values are Tnf reporter robust z-score -1.2; fewer than 50 cells in well enough cells in well; inactive.
Endog (endonuclease G) scored Tnf reporter robust z-score -0.92; fewer than 50 cells in well enough cells in well; inactive.
Eif1a (eukaryotic translation initiation factor 1A) scored Tnf reporter robust z-score 0.67; fewer than 50 cells in well enough cells in well; inactive.
Depletion of Kif20b (kinesin family member 20B) gave: Tnf reporter robust z-score -0.16; fewer than 50 cells in well enough cells in well; inactive.
Niban2 (niban apoptosis regulator 2) scored Tnf reporter robust z-score 0.45; fewer than 50 cells in well enough cells in well; inactive.
With knock-down of 1700041G16Rik (RIKEN cDNA 1700041G16 gene), the screen gave Tnf reporter robust z-score 1.92; fewer than 50 cells in well enough cells in well; inactive.
After knock-down of Or5p6 (olfactory receptor family 5 subfamily P member 6), the screen gave Tnf reporter robust z-score -1.2; fewer than 50 cells in well enough cells in well; inactive.
With knock-down of A530013C23Rik (RIKEN cDNA A530013C23 gene), the screen gave Tnf reporter robust z-score -0.06; fewer than 50 cells in well enough cells in well; inactive.
